This is an account of results in paper PMC6756002.

The chains behind the UniProt entries cited, without tags or fusion partners.
UniProt Q9UBN7: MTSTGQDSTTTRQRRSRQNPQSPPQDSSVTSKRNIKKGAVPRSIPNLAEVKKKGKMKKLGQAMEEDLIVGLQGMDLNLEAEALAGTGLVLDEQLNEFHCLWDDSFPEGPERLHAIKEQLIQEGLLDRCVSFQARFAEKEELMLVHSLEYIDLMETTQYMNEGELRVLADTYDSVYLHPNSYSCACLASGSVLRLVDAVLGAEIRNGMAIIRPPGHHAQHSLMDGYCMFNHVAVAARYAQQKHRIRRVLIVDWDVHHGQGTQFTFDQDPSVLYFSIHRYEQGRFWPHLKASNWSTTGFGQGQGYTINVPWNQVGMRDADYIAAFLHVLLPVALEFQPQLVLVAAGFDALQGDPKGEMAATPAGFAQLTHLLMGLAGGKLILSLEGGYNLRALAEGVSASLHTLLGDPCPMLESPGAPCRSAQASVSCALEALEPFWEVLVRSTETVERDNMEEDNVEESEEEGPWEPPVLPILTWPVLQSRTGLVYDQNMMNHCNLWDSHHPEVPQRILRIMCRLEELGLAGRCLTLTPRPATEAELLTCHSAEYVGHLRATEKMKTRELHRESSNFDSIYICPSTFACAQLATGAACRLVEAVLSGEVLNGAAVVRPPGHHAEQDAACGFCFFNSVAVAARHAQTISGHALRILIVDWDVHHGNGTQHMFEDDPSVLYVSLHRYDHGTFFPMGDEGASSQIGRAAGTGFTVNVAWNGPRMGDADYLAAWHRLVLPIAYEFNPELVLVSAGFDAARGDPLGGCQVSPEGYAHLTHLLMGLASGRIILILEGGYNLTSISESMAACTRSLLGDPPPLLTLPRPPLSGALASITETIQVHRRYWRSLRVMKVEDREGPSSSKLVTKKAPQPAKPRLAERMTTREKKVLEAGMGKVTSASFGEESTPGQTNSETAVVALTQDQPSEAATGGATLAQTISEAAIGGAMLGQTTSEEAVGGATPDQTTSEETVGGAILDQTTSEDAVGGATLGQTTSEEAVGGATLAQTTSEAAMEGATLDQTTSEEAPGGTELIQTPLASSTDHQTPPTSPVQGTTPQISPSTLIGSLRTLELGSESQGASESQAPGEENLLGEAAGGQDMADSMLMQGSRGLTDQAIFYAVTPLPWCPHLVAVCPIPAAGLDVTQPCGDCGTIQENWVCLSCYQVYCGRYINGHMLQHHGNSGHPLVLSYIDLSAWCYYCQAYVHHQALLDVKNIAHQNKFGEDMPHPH

Results are given in words; binding and its absence hold for the method and conditions named. Binding seen in cells or lysates may run through a third protein. Some results given as binding are weak or reduced against the parent protein; the word gives no strength. Sequences can lack the tags named with a protein.

Test [1] has as its target T1, Flag-FRA1 (Flag-FOSL1 construct) (UniProt P15407).
T1 sequence: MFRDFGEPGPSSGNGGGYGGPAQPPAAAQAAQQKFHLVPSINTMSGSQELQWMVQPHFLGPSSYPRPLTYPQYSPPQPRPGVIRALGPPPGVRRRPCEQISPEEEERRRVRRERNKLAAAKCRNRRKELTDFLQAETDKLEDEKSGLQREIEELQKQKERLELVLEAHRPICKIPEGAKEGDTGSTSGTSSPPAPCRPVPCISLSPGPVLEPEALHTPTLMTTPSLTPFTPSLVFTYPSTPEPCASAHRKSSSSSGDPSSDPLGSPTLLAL
As to the kind of experiment: co-IP; IP-Flag from DLD1 cells transfected with Flag-FOSL1 and the indicated siRNAs (siNC, siSTAT3), IL-6 stimulation for 3 h; blot for HDAC6.

Test [2] addresses T1, Flag-FRA1 (Flag-FOSL1 construct). As to the kind of experiment: co-IP; IP-Flag from 293T and DLD1 cells transfected with the indicated plasmids; blot for HDAC6.

In the case of “HDAC6, endogenous (from UniProt Q9UBN7 1-1215) (enzyme)”, the binding result in test [1] is listed as “binds”. On to “HDAC6, ectopic (from UniProt Q9UBN7 1-1215) (enzyme)”, for which, in test [2], the binding entry is recorded as “binds”.
